# According to PMC10908869:
# No constants are given. Whether binding was seen depends on the method and setting. In cells and extracts the contact can be indirect. A result given as binding can be weak or reduced; the word gives no strength.
# Target: T1, MiD49 (mitochondrial dynamics protein of 49 KDa) (UniProt Q96C03)
# T1 sequence: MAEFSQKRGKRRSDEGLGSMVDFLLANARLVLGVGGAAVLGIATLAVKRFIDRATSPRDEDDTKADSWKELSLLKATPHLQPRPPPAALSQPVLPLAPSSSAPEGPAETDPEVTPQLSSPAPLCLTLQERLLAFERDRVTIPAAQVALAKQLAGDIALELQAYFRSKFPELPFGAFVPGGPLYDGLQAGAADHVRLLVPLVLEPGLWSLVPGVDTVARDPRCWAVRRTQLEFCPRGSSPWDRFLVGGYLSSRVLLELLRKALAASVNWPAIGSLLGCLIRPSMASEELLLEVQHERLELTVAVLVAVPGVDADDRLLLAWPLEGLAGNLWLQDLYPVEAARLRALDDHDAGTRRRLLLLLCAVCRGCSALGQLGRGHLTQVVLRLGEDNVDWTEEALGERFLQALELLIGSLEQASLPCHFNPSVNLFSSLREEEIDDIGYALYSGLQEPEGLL
# Assay: co-IP; co-immunoprecipitation with MiD49 or MFF from cells with DRP1 or DRP1^K532R (mCherry-DRP1 constructs); details in Figures S7D, S7E
row,binding,Substance
1,binds,"mCherry-tagged DRP1 (wild type, isoform 3)"
2,binds,mCherry-tagged DRP1^K532R
